Reference: article PMC5333077
Results are given in words; binding and its absence hold for the method and conditions named. Binding seen in cells or lysates may run through a third protein. Some binding calls cover weakened binding; strength is not graded here.

Protein sequences, listed by entry. Tags and fused reporters are not part of them.
UniProt Q00987: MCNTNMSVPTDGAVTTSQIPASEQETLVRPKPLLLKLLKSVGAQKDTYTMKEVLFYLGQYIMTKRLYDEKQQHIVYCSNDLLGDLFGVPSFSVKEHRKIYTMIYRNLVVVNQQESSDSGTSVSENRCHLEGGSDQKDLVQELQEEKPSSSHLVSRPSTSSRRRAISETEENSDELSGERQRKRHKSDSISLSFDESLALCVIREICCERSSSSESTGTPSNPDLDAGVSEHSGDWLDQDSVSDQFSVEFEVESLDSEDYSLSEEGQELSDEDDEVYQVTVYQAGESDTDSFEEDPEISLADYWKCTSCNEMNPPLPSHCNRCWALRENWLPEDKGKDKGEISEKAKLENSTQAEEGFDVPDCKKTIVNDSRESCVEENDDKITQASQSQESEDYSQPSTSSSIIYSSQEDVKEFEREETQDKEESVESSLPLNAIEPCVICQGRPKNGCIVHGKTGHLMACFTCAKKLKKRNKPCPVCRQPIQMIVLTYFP
UniProt P03427: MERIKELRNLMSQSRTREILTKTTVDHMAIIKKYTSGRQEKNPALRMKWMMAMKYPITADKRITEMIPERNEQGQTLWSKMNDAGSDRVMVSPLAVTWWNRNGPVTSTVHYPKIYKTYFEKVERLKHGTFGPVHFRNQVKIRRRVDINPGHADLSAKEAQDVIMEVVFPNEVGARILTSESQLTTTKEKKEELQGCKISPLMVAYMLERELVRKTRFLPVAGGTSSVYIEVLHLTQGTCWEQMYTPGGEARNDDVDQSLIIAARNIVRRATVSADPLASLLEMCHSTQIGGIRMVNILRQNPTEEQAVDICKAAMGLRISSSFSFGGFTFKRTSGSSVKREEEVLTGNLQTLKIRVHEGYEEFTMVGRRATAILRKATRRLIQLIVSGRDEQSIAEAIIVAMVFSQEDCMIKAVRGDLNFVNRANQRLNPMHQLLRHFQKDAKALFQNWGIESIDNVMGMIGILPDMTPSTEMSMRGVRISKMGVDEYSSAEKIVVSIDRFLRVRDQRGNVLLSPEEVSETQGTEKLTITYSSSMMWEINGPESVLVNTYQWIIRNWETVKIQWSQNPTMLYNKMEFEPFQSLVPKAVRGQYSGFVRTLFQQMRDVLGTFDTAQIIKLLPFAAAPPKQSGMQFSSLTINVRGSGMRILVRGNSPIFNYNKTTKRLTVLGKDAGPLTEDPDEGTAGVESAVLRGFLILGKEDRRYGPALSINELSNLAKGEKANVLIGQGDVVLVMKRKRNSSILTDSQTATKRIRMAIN

Target: Myc-HDM2 (UniProt Q00987)
Assay: co-IP

In the case of FLAG-PB2 (from UniProt P03427 1-759), the binding is reported as “binds”.
